Values quoted from earlier work in patent US8895752B2, “Alkylsulfonyl-substituted thiazolide compounds” (priority 2007, dated 2014).
Some of these results come from one statement about several compounds together.

Tested on: plasma proteins
Details: cited from earlier work

Compound | bound to plasma proteins in human serum [%]
CC(=O)Oc1ccccc1C(=O)Nc1ncc([N+](=O)[O-])s1 [NTZ, nitazoxanide] | > 99
O=C(Nc1ncc([N+](=O)[O-])s1)c1ccccc1O [TIZ, tizoxanide] | > 99
